Drawing on article PMC7819943, “Rice protein-binding microarrays: a tool to detect cis-acting elements near promoter regions in rice”, this text covers binding signal for 42 sequences.

Protein sequences, listed by entry. Tags and fused reporters are not part of them.
UniProt Q0JBA9, entry or part of it: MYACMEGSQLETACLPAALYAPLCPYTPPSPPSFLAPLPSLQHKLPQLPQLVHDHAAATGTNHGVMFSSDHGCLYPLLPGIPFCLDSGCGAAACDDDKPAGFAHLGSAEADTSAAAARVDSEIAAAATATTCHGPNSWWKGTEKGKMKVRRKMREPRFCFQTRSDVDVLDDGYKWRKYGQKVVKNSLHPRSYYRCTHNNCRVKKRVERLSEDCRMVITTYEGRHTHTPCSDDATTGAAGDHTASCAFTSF

The other results are listed elsewhere or left out.

For this assay, the target named is OsWRKY34 (Oryza sativa, UniProt Q0JBA9 1-250). Kind of assay: protein-binding microarray (RPBM); PBS, 2% BSA, 51.3 ng/ul salmon testes DNA, 50 uM zinc acetate, 200 nM TF, 25 C, 1 h; high values mean tight binding. The note with it: protein: recombinant; tags: N-terminal polyhistidine and DsRed monomer fusion (pET32a); label: CyDye5-dUTP incorporated in the synthesized complementary strand; 3' TTTTT single-stranded linker to array surface; dsDNA, one strand shown. A digest of the protocol:
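The binding signal is fluorescence intensity per array feature (arbitrary units). Readings came from an Axon 4000B scanner after a washed, 2% BSA-blocked, double-stranded custom Agilent array had been incubated for 1 h at 25 °C with 200 nM protein and 50 µM zinc acetate. The protein was a Ni–NTA-purified transcription factor fused N-terminally to polyhistidine and DsRed, expressed in E. coli BL21-CodonPlus.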
Turning to “GTTTCTAATGCTCAGAGCCTGCAGCTTCTCCAGCCACTCACGGAGTCACCTAGTGCAG”, the binding signal is 9340 fluorescence intensity (a.u.). To “ACATACAACTATTTTCGAAATGTTTATTTATCTATAAAGTCGGAGTCACCTAGTGCAG” belongs 8530 fluorescence intensity (a.u.). As for “CTCCCTCGCCCACCGCCGCCGGCGCCGCCTCCCTCCCATGCGGAGTCACCTAGTGCAG”, the binding signal is 10100 fluorescence intensity (a.u.). To “AACTTGTTGGATTCTTGCATGCCTCTGGGCCTGAAAAATACGGAGTCACCTAGTGCAG” belongs 9200 fluorescence intensity (a.u.); to “TCGATTCTAACTCCAGATTTGTAGTTCATTCCCGTCATTTCGGAGTCACCTAGTGCAG”, 8350 fluorescence intensity (a.u.).

Turning to “GTATGTATTCTTAGGGATAGTTTGTGCGTGTTACGAGTGACGGAGTCACCTAGTGCAG”, the binding signal was 8700 fluorescence intensity (a.u.). As for “ATCGATGTGTTTTTTTATAATTTGTCGGTTGTTGCTTAATCGGAGTCACCTAGTGCAG”, the binding signal is 10800 fluorescence intensity (a.u.). To “TCTGTTATAACGATTATATGTTAGAGTGCATGCATTTTATCGGAGTCACCTAGTGCAG” belongs 9070 fluorescence intensity (a.u.). Turning to “CATACCAATTTACCTGTTGACTAAGGTCGTGTCATTTTAGCGGAGTCACCTAGTGCAG”, the binding signal was 9600 fluorescence intensity (a.u.). Take “CCCATTTCGCATCCGGTTCTAGCTTTCCTTGGCTTCCCATCGGAGTCACCTAGTGCAG”: the binding signal is 8170 fluorescence intensity (a.u.). To “CTCCTATAAAATCCCGACGAAACCACCGCCGCGCAACCTCCGGAGTCACCTAGTGCAG” belongs 8410 fluorescence intensity (a.u.).

For “ACACACCCGCGCCGTTCCTGCGCGCCTTGTTCGCGTCCATCGGAGTCACCTAGTGCAG”, the binding signal is 9180 fluorescence intensity (a.u.). Turning to “CGACTAGTTACTGCGGCTCTTTCAACCTGTCTCACTGTATCGGAGTCACCTAGTGCAG”, the binding signal was 8180 fluorescence intensity (a.u.).

In the case of “ATTTTGACCTTGGATTGTTATCGTTACAACTGGATCCTAGCGGAGTCACCTAGTGCAG”, the binding signal is 8790 fluorescence intensity (a.u.). Next, “ACCACGCCAAGCCGACGCCGTGCCGTGCACCTCTTTCCTCCGGAGTCACCTAGTGCAG”: 11400 fluorescence intensity (a.u.); “ACGTGTTCACTTTATTGCCAACATACATGCTACCCAATTTCGGAGTCACCTAGTGCAG”: 9060 fluorescence intensity (a.u.); “GACTTGGGGTGGGGTGGAGCGGGAGATCCATCCAAGATAGCGGAGTCACCTAGTGCAG”: 12600 fluorescence intensity (a.u.). Next, “TTGGGTTCTTGATATAACTGGTGGAAATGGCGAGGTAATTCGGAGTCACCTAGTGCAG”: 11000 fluorescence intensity (a.u.).

On to “ATGTATTGGTGTTATGCCTTCTGTTTATTTTATTTGCTCCCGGAGTCACCTAGTGCAG”, for which the binding signal is 8730 fluorescence intensity (a.u.). As for “ATTTGTTTCTAAATATTTGACACCGTTGACTTTTTAGCACCGGAGTCACCTAGTGCAG”, the binding signal was 24100 fluorescence intensity (a.u.). To “TCCCATCCACCTCCATCGCCGCCGCCGCCGCGTATGCGCCCGGAGTCACCTAGTGCAG” belongs 8650 fluorescence intensity (a.u.); to “AGCTGGCTAAATCATATTTCCAAAGTCTCTCTCGTCTCTCCGGAGTCACCTAGTGCAG”, 8510 fluorescence intensity (a.u.); to “TCTTGCTCTCCACAAACTTTCCATCACCACCTTTCGGGCGCGGAGTCACCTAGTGCAG”, 8180 fluorescence intensity (a.u.). Consider “GTGGGAGGGGACGTGGGTGGGCAAAGTCCACAAGAAAGATCGGAGTCACCTAGTGCAG”, for which the binding signal was 8240 fluorescence intensity (a.u.).

Consider “CAACCCACACACCACCACACAGATCACAACAGCAAGTTGTCGGAGTCACCTAGTGCAG”, for which the binding signal is 8160 fluorescence intensity (a.u.). To “CATCATGCTCACCGGTAACTACCCGATATTACCTCCCTATCGGAGTCACCTAGTGCAG” belongs 10800 fluorescence intensity (a.u.); to “ATGCTTGTTTTCTCATCAGGTCATTCATTGAAGACTCACACGGAGTCACCTAGTGCAG”, 8280 fluorescence intensity (a.u.); to “ATCTCCAATTTATTTTTGCTTCTAGCAAAGTTTTTTTTTTCGGAGTCACCTAGTGCAG”, 8750 fluorescence intensity (a.u.). Next, “GGGCATATGCGTGCGTGATAATCGGGGAGGAGCGGTAATACGGAGTCACCTAGTGCAG”: 8390 fluorescence intensity (a.u.).

On to “ATCTACCCCTGCGATGTGTCAAATTCCAAGCCAAGGCCCTCGGAGTCACCTAGTGCAG”, for which the binding signal was 8540 fluorescence intensity (a.u.). Next, “CGCTACCTCACCAACACCATATAATCAAATTCTAGTAGTTCGGAGTCACCTAGTGCAG”: 8060 fluorescence intensity (a.u.); “CTGCGGCAGTGTTCTTTTTTTTTTTACACGCGTTTTTTTTCGGAGTCACCTAGTGCAG”: 10800 fluorescence intensity (a.u.); “GGTACGGTCTTACTTCTATAGTTCTATTCATGTATCTATTCGGAGTCACCTAGTGCAG”: 10300 fluorescence intensity (a.u.). To “GTTTCGTGGTGGTTGCTGGGCTTTTCGTTGGCGTGGGTGGCGGAGTCACCTAGTGCAG” belongs 11500 fluorescence intensity (a.u.); to “CTCCTCTCATCAACAGAATCATCTGACCATCTTTATATCACGGAGTCACCTAGTGCAG”, 9190 fluorescence intensity (a.u.); to “AGATTTTGGCCGCGCGCTGGATACGGCTAAGCAATTCGATCGGAGTCACCTAGTGCAG”, 8230 fluorescence intensity (a.u.). To “TAAGTTCCTTTGTTTGGGTGGGGAAATATATCACACCAGACGGAGTCACCTAGTGCAG” belongs 8060 fluorescence intensity (a.u.); to “CCTCCATTTTCGGACTCCGGTGCTCTCTCCTCCTTTGCGTCGGAGTCACCTAGTGCAG”, 8450 fluorescence intensity (a.u.). In the case of “TTACTACTGCATTATCAAGTGTATCTTGCCATGTACTTCCCGGAGTCACCTAGTGCAG”, the binding signal was 12100 fluorescence intensity (a.u.). Next, “TCGTCTTCGTCTTTGCCCATGAAAATTCCCTGCCTTGTCCCGGAGTCACCTAGTGCAG”: 8770 fluorescence intensity (a.u.). Next, “CGTGTCACGCCGCGCGTTCGCGTGCCTTCCCGTTCGCACCCGGAGTCACCTAGTGCAG”: 8580 fluorescence intensity (a.u.); “CTTCCATTCCTCTCCTGGCCAGTACACGGTTGTTTATATTCGGAGTCACCTAGTGCAG”: 8640 fluorescence intensity (a.u.).
